{"sequences": {"note": "Chains of the proteins cited; added tags and fusions are not shown. Lines headed by an entry give the natural chain unless they say otherwise; changes in a name come on top.", "UniProt O94782": "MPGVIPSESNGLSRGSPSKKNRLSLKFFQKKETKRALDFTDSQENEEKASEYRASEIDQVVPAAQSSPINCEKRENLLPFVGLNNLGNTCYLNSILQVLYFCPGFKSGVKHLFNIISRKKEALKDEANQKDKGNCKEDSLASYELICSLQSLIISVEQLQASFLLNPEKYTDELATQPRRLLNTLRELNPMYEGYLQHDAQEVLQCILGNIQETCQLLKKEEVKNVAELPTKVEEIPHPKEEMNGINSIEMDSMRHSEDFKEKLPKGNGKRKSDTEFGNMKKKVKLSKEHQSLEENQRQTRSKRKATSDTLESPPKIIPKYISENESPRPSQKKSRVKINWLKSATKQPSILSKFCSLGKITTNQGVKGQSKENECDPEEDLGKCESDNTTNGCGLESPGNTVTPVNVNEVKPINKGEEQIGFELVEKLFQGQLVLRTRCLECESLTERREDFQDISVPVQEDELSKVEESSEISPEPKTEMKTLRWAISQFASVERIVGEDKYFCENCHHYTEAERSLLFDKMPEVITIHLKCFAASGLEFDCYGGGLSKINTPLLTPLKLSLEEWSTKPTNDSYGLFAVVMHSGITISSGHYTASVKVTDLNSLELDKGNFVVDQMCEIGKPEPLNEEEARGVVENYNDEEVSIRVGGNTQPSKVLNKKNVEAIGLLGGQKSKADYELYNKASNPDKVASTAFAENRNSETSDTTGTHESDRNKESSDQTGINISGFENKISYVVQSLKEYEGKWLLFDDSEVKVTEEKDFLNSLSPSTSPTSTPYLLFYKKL"}, "source": "PubChem BioAssay AID743255", "about": "(National Center for Advancing Translational Sciences (NCATS), 2014)", "note": "Screen size: about 390,000 compounds; about 910 (0.23%) were called active. Inconclusive results, whose numbers are uncertain, are shown with a selection of clear calls. Calls follow the shape of the dose curve; as a rule, active = well fitted inhibition curve with a large enough effect; inconclusive = small, poorly fitted or top-dose-only effect; inactive = no such curve, though single readings can be large or run the other way. Potencies of inconclusive entries are doubtful fits and often do not repeat. % is scaled to controls: 0 for no effect and ±100 for the full control effect; potency is read from the fitted curve at half-maximal effect.", "data": [{"target": "Ubiquitin carboxyl-terminal hydrolase 1 (Homo sapiens) (UniProt O94782)", "assay": "Inhibitors of USP1/UAF1: Primary Screen; also: nearly all actives have a fitted effect of over 60% in size", "conditions": "recombinant USP1/UAF1, Ub-Rhodamine cleavage fluorescence; activity change, negative = inhibition: at 57.1 µM (top of the series)", "procedure,_shortened": "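High-throughput fluorogenic screen: 1nM USP1/UAF1 complex, Ub-Rho substrate 150nM final, 50mM HEPES pH 7.8 with 0.5mM EDTA, 0.1 mg/ml BSA, 1mM TCEP and 0.01% Tween-20.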", "values": [{"smiles": "O=[N+]([O-])c1ccc(/C=[N+](\\[O-])[C@@H]2CCCC[C@@H]2/[N+]([O-])=C/c2ccc([N+](=O)[O-])o2)o1", "Potency": "inconclusive: 50.1 µM [inhibitor, partial curve]"}, {"smiles": "CCOc1ccccc1CNC(=O)C1CCCN(S(=O)(=O)c2ccc3c(ccn3C)c2)C1", "note": "(stereo unspecified)", "Potency": "inconclusive: 50.1 µM [inhibitor, partial curve, poor fit]"}, {"smiles": "CCc1ccc(-n2nc(C)c3c(C(=O)Nc4cc(C)ccc4C)cc(C)nc32)cc1", "Potency": "inconclusive: 1 µM [inhibitor, full curve, poor fit]"}, {"smiles": "Cc1oc(=O)c(NC(=O)c2ccc(Cl)cc2)cc1C(=O)c1ccccc1", "Potency": "inactive"}, {"smiles": "Cc1c(C(=O)N(Cc2ccc(N(C)C)cc2)CC2CCCO2)oc2ccc(Br)cc12", "note": "(stereo unspecified)", "Potency": "inconclusive: 44.7 µM [inhibitor, partial curve, poor fit]"}, {"smiles": "CCN1CCN(c2cc(C)c3cc(NC(=O)c4ccccc4F)ccc3n2)CC1", "Potency": "inconclusive: 70.8 µM [inhibitor, partial curve, poor fit]"}, {"smiles": "CC(C)NC[C@H](O)COc1cccc2ccccc12", "Potency": "inconclusive: 0.112 µM [inhibitor, full curve]"}, {"smiles": "Cc1ccsc1/C=C(\\C#N)C(=O)NC1CCS(=O)(=O)C1", "note": "(stereo unspecified)", "Potency": "inactive"}, {"smiles": "CC(=O)N1CCc2cc(Br)cc(S(=O)(=O)CCC(=O)Nc3ccc(C)cc3Cl)c21", "Potency": "inactive"}, {"smiles": "CCOc1cc(NS(=O)(=O)c2ccccc2)c(OCC)cc1NC(=O)c1ccco1", "Potency": "inconclusive: 15.8 µM [inhibitor, partial curve]"}, {"smiles": "CC(C)(C)OC(=O)CNC(=O)c1[nH]cnc1C(=O)Nc1ccc(Cl)cc1", "Potency": "inconclusive: 112 µM [inhibitor, partial curve, poor fit]"}, {"smiles": "O[C@H]1CN(CC2CCCCC2)[C@@H](c2ccc(Cl)cc2)C[C@@H]1n1cc(C2CC2)nn1", "Potency": "inconclusive: 50.1 µM [inhibitor, partial curve, poor fit]"}, {"smiles": "Cc1cccc(NC(=O)CSc2nc(=O)n(Cc3cccnc3)c3c2CCC3)c1C", "Potency": "inconclusive: 4.47 µM [inhibitor, partial curve]"}, {"smiles": "COc1ccc(/C(C)=N/NC(=S)NCCc2ccccc2)cc1", "Potency": "inconclusive: 0.316 µM [inhibitor, full curve, poor fit]"}, {"smiles": "COc1cccc(OCC(=O)Nc2nnc3n2CCS3)c1", "Potency": "inactive"}, {"smiles": "Cc1cc(NC(=O)c2ccc(NC(=O)C(C)Oc3ccccc3)cc2)no1", "note": "(stereo unspecified)", "Potency": "inconclusive: 14.1 µM [inhibitor, partial curve, poor fit]"}, {"smiles": "Cc1ccc2nc(Nc3ccc4[nH]c(=O)[nH]c4c3)c(-n3nc(C)cc3C)nc2c1", "Potency": "inactive"}, {"smiles": "COc1ccccc1-c1nnc(SCC(=O)c2ccc(F)cc2)n1-c1ccccc1", "Potency": "inactive"}, {"smiles": "CCc1ccc(CNC(=O)CN2C(=O)CCn3nc(-c4cn(C)c5ccccc45)cc32)cc1", "Potency": "inconclusive: 7.94 µM [inhibitor, partial curve, poor fit]"}, {"smiles": "COC(=O)c1ccc(C23CC4(C2)[C@H](CN(Cc2ccc(C(F)(F)F)cc2)[C@@H]4c2ccccc2)C3c2ccc(Cl)nc2)cc1", "note": "(stereo partly specified)", "Potency": "inconclusive: 4.47 µM [inhibitor, full curve, poor fit]"}, {"smiles": "C=CCOC(=O)c1ccccc1C(=O)OCC1CO1", "note": "(stereo unspecified)", "Potency": "inactive"}, {"smiles": "CC(C)OC(=O)CSc1nnc(-c2ccccc2)n1N", "Potency": "inactive"}, {"smiles": "CC(C)NC(=O)c1cc2nc(-c3ccco3)cc(C(F)(F)F)n2n1", "Potency": "inconclusive: 0.501 µM [inhibitor, full curve, poor fit]"}, {"smiles": "COc1ccc(C(=O)c2coc3ccc(O)c(CN4CCCCC4)c23)cc1", "Potency": "inconclusive: 0.708 µM [inhibitor, full curve, poor fit]"}, {"smiles": "O=C(O)c1ccccc1C(=O)Nc1ccc(Nc2ccc([N+](=O)[O-])cc2[N+](=O)[O-])cc1", "Potency": "inactive"}, {"smiles": "CCOc1ccc(C(=O)NCc2ccc3c(c2)CCN3C(=O)c2ccc(C)cc2)cc1OCC", "Potency": "inconclusive: 1.26 µM [inhibitor, full curve, poor fit]"}, {"smiles": "CC(C)(C)c1ccc(NC(=O)CSc2nnc(-c3n[nH]c4ccccc34)o2)cc1", "Potency": "inactive"}, {"smiles": "COC(=O)c1sc(N2C(=O)C(O)=C(C(=O)c3ccc(C)o3)C2c2ccc(F)cc2)nc1C", "note": "(stereo unspecified)", "Potency": "inconclusive: 39.8 µM [inhibitor, partial curve, poor fit]"}, {"smiles": "C=CCn1c(NC(=O)c2ccc(Br)o2)c(S(=O)(=O)c2ccccc2)c2nc3ccccc3nc21", "Potency": "inconclusive: 28.2 µM [inhibitor, partial curve]"}, {"smiles": "CC(C)c1ccc(/C=C2\\Oc3c(ccc(O)c3CN3CCN(C)CC3)C2=O)cc1", "Potency": "inconclusive: 31.6 µM [inhibitor, partial curve]"}, {"smiles": "Cc1ccc2nc(SCC(=O)Nc3ccc(C#N)cc3)[nH]c2c1", "Potency": "inconclusive: 7.94 µM [inhibitor, partial curve, poor fit]"}, {"smiles": "COc1ccccc1Cc1nc2ccccc2nc1SCC(=O)N1CCC(C)CC1", "Potency": "inconclusive: 50.1 µM [inhibitor, partial curve, poor fit]"}, {"smiles": "CCCC[n+]1c2ccccc2cc2ccccc21", "Potency": "inactive"}, {"smiles": "O=c1[nH]c(/C=C/c2ccccc2Cl)c([N+](=O)[O-])c(=O)[nH]1", "Potency": "inconclusive: 35.5 µM [inhibitor, partial curve, poor fit]"}, {"smiles": "C=CCNC(=O)/C(C#N)=C\\c1cc(Cl)c(OCC)c(OC)c1", "Potency": "inactive"}, {"smiles": "O=C(O)CN1C(=O)C=CC1=O", "Potency": "inactive"}, {"smiles": "Cc1ccc(-c2cc(C(F)F)n3ncc(C(=O)N4CCN(c5ccccn5)CC4)c3n2)cc1", "Potency": "inconclusive: 0.708 µM [inhibitor, full curve, poor fit]"}, {"smiles": "Cc1nc(SCC(=O)Nc2sccc2C(N)=O)c2c(C)c(C)sc2n1", "Potency": "inconclusive: 0.282 µM [inhibitor, full curve, poor fit]"}, {"smiles": "CC(C)(C)NCc1cc(Cl)ccc1OCc1ccccc1F", "Potency": "inactive"}, {"smiles": "O=C(O)c1ccccc1Nc1cc(Cl)c2nonc2c1[N+](=O)[O-]", "activity change, negative = inhibition": "inconclusive: -28.8% [inhibitor]"}, {"smiles": "Cc1ccc(/C=N/n2c(-c3ccc(Cl)cc3)n[nH]c2=S)s1", "Potency": "inconclusive: 1 µM [inhibitor, full curve, poor fit]"}]}]}
